From the supplement of paper PMC4807443
Where a name gives a salt, the structure may show the parent alone. Some of the results follow. The numbers are fractions of the control, whatever unit the source prints. Most values lie at the level of the controls, where differences are scatter.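 A lentiviral reporter stably expressed in MIN6 mouse insulinoma beta cells uses Pdx1 and Ins1 promoters to drive separate nucleus-targeted fluorescent proteins; automated imaging with Hoechst nuclear stain counted cells. Possible hits were drugs shifting Ins1 promoter signal more than two median absolute deviations from DMSO controls, with Pdx1 activity roughly normal.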

tested on: MIN6; assay: % Pdx1+ Ins1-low (RFP-only, immature) cells relative to DMSO control (fold of DMSO control); higher = more immature Pdx1+/Ins1-low cells; details: 8.5 µM; 48 h; glucose 5 mM

| SMILES | % Pdx1+ Ins1-low |
| --- | --- |
| CN1CCC[C@@H]1CCO[C@](C)(c1ccccc1)c1ccc(Cl)cc1 [Clemastine fumarate] | 0.925 |
| CCOc1ccc(NC(C)=O)cc1 [Phenacetin] | 0.611 |
| CCCCC[C@H](O)/C=C/[C@H]1[C@H](O)CC(=O)[C@@H]1CCCCCCC(=O)O [Alprostadil] | 0.859 |
| CC(C)(C)NC[C@H](O)COc1ccccc1C1CCCC1 [Penbutolol sulfate] | 0.548 |
| COc1ccc(C(=O)c2ccccc2O)c(O)c1 [Dioxybenzone] | 1.05 |
| O=c1c(O)c(-c2ccc(O)c(O)c2)oc2cc(O)cc(O)c12 [Quercetine dihydrate] | 0.91 |
| Nc1ccc(S(=O)(=O)Nc2ccccn2)cc1 [Sulfapyridine] | 1.26 |
| CO[C@H]1C[C@H](O[C@H]2[C@H](C)[C@@H](O[C@@H]3O[C@H](C)C[C@H](N(C)C)[C@H]3O)[C@@H](C)C[C@@]3(CO3)C(=O)[C@H](C)[C@@H](O)[C@@H](C)[C@@H](C)OC(=O)[C@@H]2C)O[C@@H](C)[C@@H]1O [Oleandomycin phosphate] | 1.35 |
| CN(C)CCCN1c2ccccc2Sc2ccc(Cl)cc21 [Chlorpromazine hydrochloride] | 0.737 |
| Cc1n[nH]c(=O)[nH]c1=O [Azathymine, 6] | 0.613 |
| CC(=O)[C@H]1CC[C@H]2[C@@H]3CC=C4C[C@@H](O)CC[C@]4(C)[C@H]3CC[C@]12C [Pregnenolone] | 0.628 |
| COc1ccc(CC2c3cc(OC)c(OC)cc3CC[N+]2(C)CCC(=O)OCCCCCOC(=O)CC[N+]2(C)CCc3cc(OC)c(OC)cc3C2Cc2ccc(OC)c(OC)c2)cc1OC (stereo not given) [Atracurium besylate] | 1.2 |
| CC(COc1ccccc1)NC(C)C(O)c1ccc(O)cc1 (stereo not given) [Isoxsuprine hydrochloride] | 0.685 |
| CC(C)(C)c1ccc(C(O)CCCN2CCC(C(O)(c3ccccc3)c3ccccc3)CC2)cc1 (stereo not given) [Terfenadine] | 1.3 |
| CC[C@@H](C(=O)[C@@H](C)[C@@H](O)[C@H](C)CCc1ccc(C)c(O)c1C(=O)O)[C@H]1O[C@](CC)([C@H]2CC[C@](O)(CC)[C@H](C)O2)C[C@@H]1C [Lasalocid sodium salt] | 0.591 |
| CCOC(=O)NNc1nncc2ccccc12 [Todralazine hydrochloride] | 0.942 |
| CCCCN1CCCCC1C(=O)Nc1c(C)cccc1C (stereo not given) [Bupivacaine hydrochloride] | 0.723 |
| COc1cc(-c2ccc(=O)[nH]n2)ccc1OC(F)F [Zardaverine] | 0.561 |
| O=c1cc(-c2ccc(O)cc2)oc2c([C@@H]3O[C@H](CO)[C@@H](O)[C@H](O)[C@H]3O)c(O)cc(O)c12 [Vitexin] | 1.48 |
| CCCCNc1c(C(=O)OCC)c(C)nc2c1cnn2CC [Tracazolate hydrochloride] | 0.738 |
| COc1cc(NC(C)CCCN)c2ncccc2c1 (stereo not given) [Primaquine diphosphate] | 0.724 |
| CCCCC1(COC(=O)CCC(=O)O)C(=O)N(c2ccccc2)N(c2ccccc2)C1=O [Suxibuzone] | 1.07 |
| CN(C)[C@@H]1C(O)=C(C(N)=O)C(=O)[C@@]2(O)C(O)=C3C(=O)c4c(O)cccc4[C@@](C)(O)[C@H]3[C@H](O)[C@@H]12 [Oxytetracycline dihydrate] | 1.12 |

| SMILES | % Pdx1+ Ins1-low |
| --- | --- |
| NC(N)=Nc1nc(CSCC/C(N)=N/S(N)(=O)=O)cs1 [Famotidine] | 0.767 |
| Cc1cc(-c2ccccc2)nnc1NCCN1CCOCC1 [Minaprine dihydrochloride] | 0.672 |
| CSc1ccc2c(c1)N(CCC1CCCCN1C)c1ccccc1S2 (stereo not given) [Thioridazine hydrochloride] | 0.86 |
| CC/C(=C(/CC)c1ccc(O)cc1)c1ccc(O)cc1 [Diethylstilbestrol] | 0.935 |
| CC1=C(/C=C/C(C)=C/C=C/C(C)=C\C(=O)O)C(C)(C)CCC1 [Isotretinoin] | 1 |
| CN(Cc1cnc2nc(N)nc(N)c2n1)c1ccc(C(=O)N[C@@H](CCC(=O)O)C(=O)O)cc1 [Methotrexate] | 1.23 |
| CN(Cc1cnc2nc(N)nc(N)c2n1)c1ccc(C(=O)N[C@@H](CCC(=O)O)C(=O)O)cc1 (racemic) [Amethopterin (R,S)] | 0.634 |
| CNC(C)CCC=C(C)C (stereo not given) [Isometheptene mucate] | 0.976 |
| O=C(COc1ccc(Cl)cc1)N1CCN(Cc2ccc3c(c2)OCO3)CC1 [Fipexide hydrochloride] | 0.934 |
| CCN(CC)CCNc1ccc(CO)c2sc3ccccc3c(=O)c12 [Hycanthone] | 1.35 |
| CN(C)c1ccc(O)c2c1C[C@H]1C[C@H]3[C@H](N(C)C)C(O)=C(C(N)=O)C(=O)[C@@]3(O)C(O)=C1C2=O [Minocycline hydrochloride] | 0.827 |
| Cc1ccsc1/C=C/C1=NCCCN1C [Morantel tartrate] | 0.947 |
| Cc1ccc(S(=O)(=O)NC(=O)NN2CCCCCC2)cc1 [Tolazamide] | 1.28 |
| C[C@]12CC[C@@H]3c4ccc(OS(=O)(=O)O)cc4CC[C@H]3[C@@H]1CCC2=O [Estropipate] | 0.707 |
| OC(CCCN1CCCCC1)(c1ccccc1)c1ccccc1 [Diphenidol hydrochloride] | 0.836 |
| CCN(CC)CCOC(=O)C(c1ccccc1)c1ccccc1 [Adiphenine hydrochloride] | 0.986 |
| CCOC(=O)c1ccc(N)cc1 [Benzocaine] | 0.674 |
| C=CCSCC1Nc2cc(Cl)c(S(N)(=O)=O)cc2S(=O)(=O)N1 (stereo not given) [Althiazide] | 0.488 |
| CC(=O)N(CC(O)CN(C(C)=O)c1c(I)c(C(=O)NCC(O)CO)c(I)c(C(=O)NCC(O)CO)c1I)c1c(I)c(C(=O)NCC(O)CO)c(I)c(C(=O)NCC(O)CO)c1I (stereo not given) [Iodixanol] | 0.63 |
| CC(C(=O)O)c1ccc(C(=O)c2ccccc2)s1 (stereo not given) [Tiaprofenic acid] | 0.609 |
| c1ccc(CN(CC2=NCCN2)c2ccccc2)cc1 [Antazoline hydrochloride] | 0.46 |
| O=C(/C=C/c1ccc(O)c(O)c1)O[C@@H]1C[C@](O)(C(=O)O)C[C@@H](O)[C@H]1O [Chlorogenic acid] | 0.892 |

2 records drawn at random from those above, as already listed:

| SMILES | % Pdx1+ Ins1-low |
| --- | --- |
| NC(N)=Nc1nc(CSCC/C(N)=N/S(N)(=O)=O)cs1 [Famotidine] | 0.767 |
| CCOC(=O)c1ccc(N)cc1 [Benzocaine] | 0.674 |

Some of the entries so far, field by field.
CC(C)(C)NC[C@H](O)COc1ccccc1C1CCCC1 [Penbutolol sulfate]
  % Pdx1+ Ins1-low: 0.548
CC(=O)N(CC(O)CN(C(C)=O)c1c(I)c(C(=O)NCC(O)CO)c(I)c(C(=O)NCC(O)CO)c1I)c1c(I)c(C(=O)NCC(O)CO)c(I)c(C(=O)NCC(O)CO)c1I (stereo not given) [Iodixanol]
  % Pdx1+ Ins1-low: 0.63
